From US20230250168A1 (MABWELL SHANGHAI BIOSCIENCE, published 2023)
These are yes or no findings as the source states them, for the method shown. Some entries that bind do so weakly or less than the wild type.

Sequences of proteins named here, by UniProt entry; tags and fusion partners are left off. A change or cut given only in a name is not applied to a line headed by its entry. A line that says so, or that is headed by a name, gives the form on record, which may keep a tag or linker.
human CLDN18.2 expressed on cell surfaces (P56856, form named): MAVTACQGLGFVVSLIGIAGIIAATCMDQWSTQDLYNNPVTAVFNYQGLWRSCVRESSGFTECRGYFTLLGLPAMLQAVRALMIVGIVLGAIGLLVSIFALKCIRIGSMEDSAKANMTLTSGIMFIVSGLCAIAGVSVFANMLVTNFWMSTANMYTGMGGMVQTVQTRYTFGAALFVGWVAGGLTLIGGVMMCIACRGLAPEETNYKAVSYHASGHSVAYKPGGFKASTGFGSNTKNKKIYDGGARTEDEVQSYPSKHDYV

Tests used:
[1] = molecular target: human CLDN18.2 expressed on cell surfaces (human) (UniProt P56856); assay: flow cytometry on transfected HEK293 cells
[2] = molecular target: human CLDN18.2 expressed on cell surfaces (human) (UniProt P56856); assay: flow cytometry on HEK293 cells transfected with human CLDN18.2, MFI; antibody concentration not shown

B1: 16K15-hz22 (antibody, human IgG1, V domains shown)
VH: EVQLVESGGGLVQPGGSLRLSCAGSGITLSTYAMSWVRQAPGKGLEWVSSIISGGITYYLDSVKGRFTISRDNAKNTLYLQMSSLRAEDTAVYYCARKYHGNALDYWGQGTLVTVSS
VL: DIVMTQSPDSLAVSLGERATINCKSSQSLLSSGNQRNYLTWYQQKPGQPPKKLIYWASTRESGVPDRFSGSGSGTDFTLTISSLQAEDLAVYYCQNNYFYPLTFGQGTKLEIK
notes: Humanized; also called 16K15-hz22 IgG; 16K15-22 IgG
[1]
  binding: binds
[2]
  binding: binds
